# Data taken from patent US7906105B1, “Zinc-activated contrast agents” (Northwestern University, priority 2006, dated 2011).
# Assays:
# [1] = Nuclear magnetic relaxation dispersion (NMRD) profiles; type: physicochemical
# [2] = Relaxivity measurements in the absence and presence of ZnCl2; type: physicochemical
# Protocol: Left: Relaxivity of Compound 1 in the presence of XCl2, where X=Zn, Ca, and Mg. All solutions were made in 100 mM KCl/100 mM HEPES at ph=7.4. Right: Relaxivity of Zn-1, 3:1 (Zn:Gd), following titration of EDTA.
# To test the binding ability of the acetate ligands to Zn(II), relaxivity measurements of 1 were measured in the absence and presence of ZnCl2. The relaxitivity of 1 in HEPES buffer without zinc was 2.34 mM^−1 s^−1, as is typical for small molecule contrast agents for which q=0 (8). […] As ZnCl2 was added, the relaxivity increased to 5.3 mM^−1 s^−1 indicative of a q=1 complex (See FIG. 3, left). Similar studies were conducted using MgCl2 and CaCl2 to test for selectivity of the ligand for zinc over other dications known to have higher cellular concentrations and which have similar binding affinities for carboxylic acids. […] A competitive binding assay gave a dissociation constant of 2.38×10^−4 M for the Gd(III)-Zn(II) complex.
# After 1 was left to equilibrate at 37° C. for 3 days with an excess of zinc, a relaxivity of 9.2 mM^−1 s^−1 was measured, indicating the species has a value of q=2. This measurement corresponds well to a structure proposed by embodiments of the present invention in which the pendant ligands have left the gadolinium for the zinc, leaving two open coordination sites for water to bind. […] Although an understanding of the mechanism is not necessary to practice the present invention and the present invention is not limited to any particular mechanism of action, in some embodiments, this is due to sequestration of Zn(II) by EDTA which leaves the carboxylic acids available to bind to Gd(III) and close the coordination sites (See FIG. 3, right). Adding excess EDTA had no effect on the relaxivity, providing that the Gd(III) ions are not sequestered by EDTA as expected given the high binding constant (˜10^16) for Gd-EDTA for which q=1.
# Proton relaxivity measurements on Compound 1 were also performed while titrating with increasing amounts of Zn(II) up to 1:1.4 (Gd: Zn) equivalents. […]
smiles,measurement,setting,value
Cc1cccc(OCCCN2CCN(CC(=O)[O-])CCN(CC(=O)[O-])CCN(CC(=O)[O-])CC2)c1N(CC(=O)[O-])CC(=O)[O-].[Gd+3] [Compound 1],coordinated water q,"[1]; Zn(II)-coordinated complex, SBM theory",1.2±0.3
same,fraction of coordinated water q (upper limit),"[1]; absence of Zn(II), water protons at ~3.1 Å",≤ 0.3±0.2
same,q (number of bound water molecules) indicated by relaxivity,"[2]; 37° C., 3 days, excess of zinc",2
same,q (number of bound water molecules) indicated by relaxivity,[2]; ZnCl2 added,1
same,Zn(II) equivalents at which relaxation rate enhancement plateaus,[2]; titration with Zn(II) up to 1:1.4 (Gd:Zn),1.2-1.4 equivalents
